Laboratory results reported in patent US8148538B2, “N-alkyl-heterocyclyl carboxamide derivatives” (Bayer Cropscience AG, priority 2005, dated 2012).
Some entries share one result that the patent states for a list of compounds.

Columns and labels:
Botrytis cinerea = assay: In vivo test on Botrytis cinerea (cucumber grey mould), preventive spray on cucumber plants; conditions: grading 5/7 days after contamination vs control plants
Procedure: (§1) The active ingredient tested is prepared by homogenisation in DMSO (5% of the final volume), acetone (10% of the final volume) and tween 80 10% (5 μl/mg active ingredient).
(§2) Cucumber plants (Marketer variety) in starter cups, sown on a 50/50 peat soil-pozzolana substrate and grown at 18-20° C., are treated at the cotyledon Z11 stage by spraying with the aqueous suspension described above. Plants, used as controls, are treated with an aqueous solution not containing the active material.
After 24 hours, the plants are contaminated by depositing drops of an aqueous suspension of Botrytis cinerea spores (150,000 spores per ml) on upper surface of the leaves. The spores are collected from a 15-day-old culture and are suspended in a nutrient solution composed of: • 20 g/L of gelatin • 50 g/L of cane sugar • 2 g/L of NH4NO3 • 1 g/L of KH2PO4
The contaminated cucumber plants are settled for 5/7 days in a climatic room at 15-11° C. (day/night) and at 80% relative humidity.

Pyrenophora teres = assay: In vivo test on Pyrenophora teres (barley net blotch), preventive spray on barley plants; conditions: grading 12 days after contamination vs control plants
Procedure: as §1
as §2, with “Barley” for “Cucumber”, “(Express” for “(Marketer”, “12°” for “18-20°”, “1-leaf” for “cotyledon Z11”, “stage (10 cm tall)” for “stage”
After 24 hours, the plants are contaminated by spraying them with an aqueous suspension of Pyrenophora teres spores (12,000 spores per ml). The spores are collected from a 12-day-old culture. The contaminated barley plants are incubated for 24 hours at about 20° C. and at 100% relative humidity, and then for 12 days at 80% relative humidity.

Sphaerotheca fuliginea = assay: In vivo test on Sphaerotheca fuliginea (powdery mildew), preventive spray on gherkin plants; conditions: grading 21 days after contamination vs control plants
Procedure: as §1
as §2, with “Gherkin” for “Cucumber”, “(Vert petit de Paris” for “(Marketer”, “20° C./23°” for “18-20°”, “at” for “at the”
After 24 hours, the plants are contaminated by spraying them with an aqueous suspension of Sphaerotheca fuliginea spores (100 000 spores per ml). The spores are collected from a contaminated plants. The contaminated gerkhin plants are incubated at about 20° C./25° C. and at 60/70% relative humidity.

Alternaria brassicae = assay: In vivo test on Alternaria brassicae (leaf spot of crucifers), preventive spray on radish plants; conditions: dose of 500 ppm, grading 6 to 7 days after contamination vs control plants
Procedure: The active ingredient tested is prepared by homogenisation in DMSO (5% of the final volume), acetone (10% of the final volume) and tween 80 10% (5 μl/mg active ingredient). Radish plants (Pernot variety) in starter cups, sown on a 50/50 peat soil-pozzolana substrate and grown at 18-20° C., are treated at the cotyledon stage by spraying with the aqueous suspension described above. Plants, used as controls, are treated with an aqueous solution not containing the active material. After 24 hours, the plants are contaminated by spraying them with an aqueous suspension of Alternaria brassicae spores (40,000 spores per cm^3). The spores are collected from a 12 to 13 days-old culture. The contaminated radish plants are incubated for 6-7 days at about 18° C., under a humid atmosphere. Grading is carried out 6 to 7 days after the contamination, in comparison with the control plants. Under these conditions, good (at least 70%) or total protection is observed at a dose of 500 ppm with the following compounds: 1-2, 2-2, 2-5, 3-2, 3-5, 4-3, 4-4, 4-5, 4-6, 5-4, 5-5, 5-7, 6-1, 7-1, 7-3, 7-4, 7-6, 9-3, 10-3, 10-4, 5, 10-6, 10-8, 11-1, 11-2, 12-2, 13-1, 13-3, 13-5, 15-2, 15-3, 16-4, 19-1, 20-1, 21-1, 21-2, 22-2, 22-3, 23-1, 24-1, 24-2, 25-1, 25-3, 26-2, 27-1, 28-2, 30-1, 30-2, 31-1, 32-1 and 33-2.

CC(C)CCC(C)NC(=O)c1cn(C)cc1C(F)(F)F (centres unmarked) [Compound 2-1]
at least 70%: good (at least 70%) or total protection (Botrytis cinerea; dose of 500 ppm) | good (at least 70%) or total protection (Pyrenophora teres; dose of 500 ppm) | good (at least 70%) or total protection (% of efficacy) (Sphaerotheca fuliginea; dose of 500 ppm)

CC(CC(C)NC(=O)c1cn(C)cc1C(F)(F)F)C[Si](C)(C)C (centres unmarked) [Compound 2-6]
at least 70%: good (at least 70%) or total protection (Botrytis cinerea; dose of 250 ppm) | good (at least 70%) or total protection (Pyrenophora teres; dose of 250 ppm) | good (at least 70%) or total protection (% of efficacy) (Sphaerotheca fuliginea; dose of 250 pmm)

CC(CCC[Si](C)(C)C)NC(=O)c1cn(C)nc1C(F)(F)F (centres unmarked) [Compound 4-3]
at least 70%: good (at least 70%) or total protection (Alternaria brassicae) | good (at least 70%) or total protection (Botrytis cinerea; dose of 500 ppm) | good (at least 70%) or total protection (Pyrenophora teres; dose of 500 g/ha) | good (at least 70%) or total protection (% of efficacy) (Sphaerotheca fuliginea; dose of 500 ppm)

CC(CC(C)NC(=O)c1cn(C)nc1C(F)(F)F)C[Si](C)(C)C (centres unmarked) [Compound 4-5]
at least 70%: good (at least 70%) or total protection (Alternaria brassicae) | good (at least 70%) or total protection (Botrytis cinerea; dose of 500 ppm) | good (at least 70%) or total protection (Pyrenophora teres; dose of 500 ppm) | good (at least 70%) or total protection (% of efficacy) (Sphaerotheca fuliginea; dose of 500 ppm)

CC(CC(C)NC(=O)c1cn(C)nc1C(F)F)C[Si](C)(C)C (centres unmarked) [Compound 5-4]
at least 70%: good (at least 70%) or total protection (Alternaria brassicae) | good (at least 70%) or total protection (Botrytis cinerea; dose of 500 ppm) | good (at least 70%) or total protection (Pyrenophora teres; dose of 500 ppm) | good (at least 70%) or total protection (% of efficacy) (Sphaerotheca fuliginea; dose of 500 ppm)

CC(C[Si](C)(C)C)C(C)C(C)NC(=O)c1cn(C)nc1C(F)F (centres unmarked) [Compound 5-5]
at least 70%: good (at least 70%) or total protection (Alternaria brassicae) | good (at least 70%) or total protection (Botrytis cinerea; dose of 500 ppm) | good (at least 70%) or total protection (Pyrenophora teres; dose of 500 ppm) | good (at least 70%) or total protection (% of efficacy) (Sphaerotheca fuliginea; dose of 500 ppm)

CC(C)CCCC(C)(C)NC(=O)c1cn(C)nc1C(F)F [Compound 5-6]
at least 70%: good (at least 70%) or total protection (Botrytis cinerea; dose of 500 ppm) | good (at least 70%) or total protection (% of efficacy) (Sphaerotheca fuliginea; dose of 500 ppm)

CC(CC(C)N(C(=O)c1cn(C)nc1C(F)F)C1CC1)C[Si](C)(C)C (centres unmarked) [Compound 5-7]
at least 70%: good (at least 70%) or total protection (Alternaria brassicae) | good (at least 70%) or total protection (Botrytis cinerea; dose of 500 ppm) | good (at least 70%) or total protection (Pyrenophora teres; dose of 500 ppm) | good (at least 70%) or total protection (% of efficacy) (Sphaerotheca fuliginea; dose of 500 ppm)

Cc1nn(C)c(F)c1C(=O)NC(C)CC(C)CC(C)(C)C (centres unmarked) [Compound 7-2]
at least 70%: good (at least 70%) or total protection (Botrytis cinerea; dose of 500 ppm) | good (at least 70%) or total protection (Pyrenophora teres; dose of 500 ppm) | good (at least 70%) or total protection (% of efficacy) (Sphaerotheca fuliginea; dose of 500 ppm)

Cc1nn(C)c(F)c1C(=O)NC(C)CC(C)C[Si](C)(C)C (centres unmarked) [Compound 7-3, N-[1,3-dimethyl-4-(trimethylsilyl)butyl]-5-fluoro-1,3-dimethyl-1H-pyrazole-4-carboxamide]
at least 70%: good (at least 70%) or total protection (Alternaria brassicae) | good (at least 70%) or total protection (Pyrenophora teres; dose of 500 ppm) | good (at least 70%) or total protection (% of efficacy) (Sphaerotheca fuliginea; dose of 500 ppm)

Cc1nn(C)c(F)c1C(=O)NC(C)C(C)C(C)C[Si](C)(C)C (centres unmarked) [Compound 7-4]
at least 70%: good (at least 70%) or total protection (Alternaria brassicae) | good (at least 70%) or total protection (Pyrenophora teres; dose of 500 ppm) | good (at least 70%) or total protection (% of efficacy) (Sphaerotheca fuliginea; dose of 500 ppm)

Cc1nn(C)c(F)c1C(=O)NC(C)(C)CCCC(C)C [Compound 7-5]
at least 70%: good (at least 70%) or total protection (Botrytis cinerea; dose of 500 ppm) | good (at least 70%) or total protection (% of efficacy) (Sphaerotheca fuliginea; dose of 500 ppm)

Cc1nn(C)c(F)c1C(=O)N(C(C)CC(C)C[Si](C)(C)C)C1CC1 (centres unmarked) [Compound 7-6]
at least 70%: good (at least 70%) or total protection (Alternaria brassicae) | good (at least 70%) or total protection (Botrytis cinerea; dose of 500 ppm) | good (at least 70%) or total protection (Pyrenophora teres; dose of 500 ppm) | good (at least 70%) or total protection (% of efficacy) (Sphaerotheca fuliginea; dose of 500 ppm)

Cc1nc(C(F)(F)F)c(C(=O)NC(C)CC(C)C[Si](C)(C)C)s1 (centres unmarked) [Compound 9-3]
at least 70%: good (at least 70%) or total protection (Alternaria brassicae) | good (at least 70%) or total protection (Botrytis cinerea; dose of 500 ppm) | good (at least 70%) or total protection (Pyrenophora teres; dose of 500 ppm) | good (at least 70%) or total protection (% of efficacy) (Sphaerotheca fuliginea; dose of 500 ppm)

Cc1nc(C(F)F)c(C(=O)NC(C)CCC[Si](C)(C)C)s1 (centres unmarked) [Compound 10-3, 4-(difluoromethyl)-2-methyl-N-[1-methyl-4-(trimethylsilyl)butyl]-1,3-thiazole-5-carboxamide]
at least 70%: good (at least 70%) or total protection (Alternaria brassicae) | good (at least 70%) or total protection (Botrytis cinerea; dose of 500 ppm) | good (at least 70%) or total protection (Pyrenophora teres; dose of 500 g/ha) | good (at least 70%) or total protection (% of efficacy) (Sphaerotheca fuliginea; dose of 500 ppm)

Cc1nc(C(F)F)c(C(=O)NC(C)CC(C)CC(C)(C)C)s1 (centres unmarked) [Compound 10-4]
at least 70%: good (at least 70%) or total protection (Alternaria brassicae) | good (at least 70%) or total protection (Botrytis cinerea; dose of 500 ppm) | good (at least 70%) or total protection (Pyrenophora teres; dose of 500 g/ha) | good (at least 70%) or total protection (% of efficacy) (Sphaerotheca fuliginea; dose of 500 ppm)

Cc1nc(C(F)F)c(C(=O)NC(C)CC(C)C[Si](C)(C)C)s1 (centres unmarked) [Compound 10-5]
at least 70%: good (at least 70%) or total protection (Alternaria brassicae) | good (at least 70%) or total protection (Botrytis cinerea; dose of 500 ppm) | good (at least 70%) or total protection (Pyrenophora teres; dose of 500 ppm) | good (at least 70%) or total protection (% of efficacy) (Sphaerotheca fuliginea; dose of 500 ppm)

Cc1nc(C(F)F)c(C(=O)NC(C)C(C)C(C)C[Si](C)(C)C)s1 (centres unmarked) [Compound 10-6]
at least 70%: good (at least 70%) or total protection (Alternaria brassicae) | good (at least 70%) or total protection (Pyrenophora teres; dose of 500 ppm) | good (at least 70%) or total protection (% of efficacy) (Sphaerotheca fuliginea; dose of 500 ppm)

CC(CC1CCCCC1)NC(=O)c1cn(C)nc1C(F)(F)F (centres unmarked) [Compound 21-1]
at least 70%: good (at least 70%) or total protection (Alternaria brassicae) | good (at least 70%) or total protection (Botrytis cinerea; dose of 500 ppm) | good (at least 70%) or total protection (Pyrenophora teres; dose of 500 g/ha) | good (at least 70%) or total protection (% of efficacy) (Sphaerotheca fuliginea; dose of 500 ppm)

CC(CCC1CCCCC1)NC(=O)c1cn(C)nc1C(F)(F)F (centres unmarked) [Compound 21-2]
at least 70%: good (at least 70%) or total protection (Alternaria brassicae) | good (at least 70%) or total protection (Botrytis cinerea; dose of 500 ppm) | good (at least 70%) or total protection (Pyrenophora teres; dose of 500 ppm) | good (at least 70%) or total protection (% of efficacy) (Sphaerotheca fuliginea; dose of 500 ppm)

CC(CCC1CCCCC1)NC(=O)c1cn(C)nc1C(F)F (centres unmarked) [Compound 22-2, N-(3-cyclohexyl-1-methylpropyl)-3-(difluoromethyl)-1-methyl-1H-pyrazole-4-carboxamide]
at least 70%: good (at least 70%) or total protection (Alternaria brassicae) | good (at least 70%) or total protection (Botrytis cinerea; dose of 500 ppm) | good (at least 70%) or total protection (Pyrenophora teres; dose of 500 ppm) | good (at least 70%) or total protection (% of efficacy) (Sphaerotheca fuliginea; dose of 500 ppm)

Cc1nc(C(F)(F)F)c(C(=O)NC(C)CC2CCCCC2)s1 (centres unmarked) [Compound 25-1]
at least 70%: good (at least 70%) or total protection (Alternaria brassicae) | good (at least 70%) or total protection (Pyrenophora teres; dose of 500 g/ha) | good (at least 70%) or total protection (% of efficacy) (Sphaerotheca fuliginea; dose of 500 ppm)

Cc1nc(C(F)(F)F)c(C(=O)NC(C)CCC2CCCCC2)s1 (centres unmarked) [Compound 25-2]
at least 70%: good (at least 70%) or total protection (Botrytis cinerea; dose of 500 ppm) | good (at least 70%) or total protection (Pyrenophora teres; dose of 500 ppm) | good (at least 70%) or total protection (% of efficacy) (Sphaerotheca fuliginea; dose of 500 ppm)

Cc1occc1C(=O)NC(C)CC1CCCCC1 (centres unmarked) [Compound 33-1]
at least 70%: good (at least 70%) or total protection (Botrytis cinerea; dose of 500 ppm) | good (at least 70%) or total protection (Pyrenophora teres; dose of 500 ppm) | good (at least 70%) or total protection (% of efficacy) (Sphaerotheca fuliginea; dose of 500 ppm)
